The source of these data is US10501562B2, “Co-initiator and co-monomer for use in preparing polymer related compositions, methods of manufacture, and methods of use” (University of Kansas, priority 2015, dated 2019).

A short description of the data set: Cumulative amine co-initiator (and photoinitiator component) release from dentin adhesives in ethanol, HPLC. The conditions noted are these: for release of CQ and DPIHP: HPLC, ethanol; for co-initiator released from 1 gram polymer samples: 60 days in ethanol, co-initiator 0.5 wt. %, released mass divided by polymer mass; for release of co-initiator from the polymer: in ethanol, based on the HPLC results; for release rate of co-initiator (time of release): polymers aged in ethanol. Format: physicochemical.

`CC12CCC(C(=O)C1=O)C2(C)C` (centres unmarked) [CQ, camphorquinone]: the “release of CQ and DPIHP” value is given as “could not be detected”.
`C=C(C)C(=O)OCCN(C)C` [DMAEMA, 2-(dimethylamino) ethyl methacrylate]: the “co-initiator released from 1 gram polymer samples” value stood at 0.56 ± 0.15 mg, the “release of co-initiator from the polymer” value was found to be 11.2% and the “release rate of co-initiator (time of release)” value is listed as approximately 20 days.
For `F[P-](F)(F)(F)(F)F.c1ccc([I+]c2ccccc2)cc1` [DPIHP, diphenyliodonium hexafluorophosphate], the “release of CQ and DPIHP” value is recorded as “could not be detected”.
With `CCOC(=O)c1ccc(N(C)C)cc1` [EDMAB, Ethyl-4-(dimethylamino) benzoate], the “co-initiator released from 1 gram polymer samples” value stood at 2.68 ± 0.21 mg, the “release of co-initiator from the polymer” value is given as 53.6% and the “release rate of co-initiator (time of release)” value is approximately 40 days.
For the compound `C=C(C)C(=O)OCCNC(=O)OC(C)CN(CC(C)OC(=O)NCCOC(=O)C(=C)C)CC(C)OC(=O)NCCOC(=O)C(=C)C` (centres unmarked) [TUMA, 8-(2-(((2-(methacryloyloxy)ethyl)carbamoyl)oxy)propyl)-6,10-dimethyl-4,12-dioxo-5,11-dioxa-3,8,13-triazapentadecane-1,15-diyl bis(2-methylacrylate)], the “release of co-initiator from the polymer” value is given as “no TUMA release or it was below the detectable limit”. In addition, the “cumulative amine co-initiator release” value (after 60 days in ethanol at 25 C, co-initiator at 0.5 wt. %) is “no TUMA was detected”. Further, the “cumulative amine co-initiator release” value (in ethanol at 25 C, co-initiator at 1.75 wt. %) was “no TUMA was detected”.
